Measurements reported in the supplement of paper PMC10849652.
The other results are listed elsewhere or left out.

Chains of the proteins cited; added tags and fusions are not shown. Lines headed by an entry give the natural chain unless they say otherwise; changes in a name come on top.
UniProt P07311: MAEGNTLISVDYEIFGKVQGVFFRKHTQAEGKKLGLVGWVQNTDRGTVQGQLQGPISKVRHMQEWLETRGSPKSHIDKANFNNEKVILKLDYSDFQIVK
UniProt Q86V24: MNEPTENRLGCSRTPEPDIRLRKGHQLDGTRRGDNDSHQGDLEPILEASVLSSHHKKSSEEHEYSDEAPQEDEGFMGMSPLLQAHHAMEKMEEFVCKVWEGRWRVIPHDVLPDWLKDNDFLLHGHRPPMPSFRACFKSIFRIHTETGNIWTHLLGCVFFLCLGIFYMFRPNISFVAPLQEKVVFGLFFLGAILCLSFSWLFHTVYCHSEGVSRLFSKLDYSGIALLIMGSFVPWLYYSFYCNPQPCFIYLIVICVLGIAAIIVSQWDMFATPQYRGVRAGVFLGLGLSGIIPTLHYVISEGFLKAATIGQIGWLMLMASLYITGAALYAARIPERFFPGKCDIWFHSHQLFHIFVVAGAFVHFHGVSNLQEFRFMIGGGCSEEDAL
UniProt P52594: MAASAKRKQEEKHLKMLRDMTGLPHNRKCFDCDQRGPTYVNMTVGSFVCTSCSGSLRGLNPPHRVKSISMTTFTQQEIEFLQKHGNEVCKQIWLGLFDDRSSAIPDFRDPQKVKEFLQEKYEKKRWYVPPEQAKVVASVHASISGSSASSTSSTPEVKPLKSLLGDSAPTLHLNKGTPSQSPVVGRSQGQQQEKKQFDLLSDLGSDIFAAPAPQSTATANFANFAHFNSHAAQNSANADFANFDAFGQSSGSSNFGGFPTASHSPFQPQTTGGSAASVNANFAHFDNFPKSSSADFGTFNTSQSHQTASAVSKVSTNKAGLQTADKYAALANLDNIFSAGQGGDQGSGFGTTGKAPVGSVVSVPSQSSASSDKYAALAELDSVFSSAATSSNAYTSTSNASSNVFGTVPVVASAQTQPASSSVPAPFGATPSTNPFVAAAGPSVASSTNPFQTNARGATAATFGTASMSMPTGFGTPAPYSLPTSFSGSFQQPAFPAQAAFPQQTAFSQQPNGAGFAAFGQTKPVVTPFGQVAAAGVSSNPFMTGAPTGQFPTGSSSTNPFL
UniProt Q53FZ2: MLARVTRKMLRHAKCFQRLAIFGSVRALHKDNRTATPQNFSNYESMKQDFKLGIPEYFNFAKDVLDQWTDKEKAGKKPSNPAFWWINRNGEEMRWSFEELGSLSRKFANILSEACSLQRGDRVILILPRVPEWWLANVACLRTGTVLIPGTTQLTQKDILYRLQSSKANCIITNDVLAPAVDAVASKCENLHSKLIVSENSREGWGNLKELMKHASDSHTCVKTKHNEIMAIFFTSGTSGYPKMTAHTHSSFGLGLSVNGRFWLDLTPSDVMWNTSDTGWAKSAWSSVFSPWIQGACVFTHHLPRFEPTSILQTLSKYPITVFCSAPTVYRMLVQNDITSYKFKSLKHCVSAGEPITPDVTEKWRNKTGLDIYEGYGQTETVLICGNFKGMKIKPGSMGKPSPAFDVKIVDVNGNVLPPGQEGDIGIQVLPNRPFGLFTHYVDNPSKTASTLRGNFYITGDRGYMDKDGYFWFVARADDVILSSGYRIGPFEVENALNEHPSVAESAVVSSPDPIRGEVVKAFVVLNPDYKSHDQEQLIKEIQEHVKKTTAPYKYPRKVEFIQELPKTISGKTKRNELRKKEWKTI
UniProt Q9H2P0: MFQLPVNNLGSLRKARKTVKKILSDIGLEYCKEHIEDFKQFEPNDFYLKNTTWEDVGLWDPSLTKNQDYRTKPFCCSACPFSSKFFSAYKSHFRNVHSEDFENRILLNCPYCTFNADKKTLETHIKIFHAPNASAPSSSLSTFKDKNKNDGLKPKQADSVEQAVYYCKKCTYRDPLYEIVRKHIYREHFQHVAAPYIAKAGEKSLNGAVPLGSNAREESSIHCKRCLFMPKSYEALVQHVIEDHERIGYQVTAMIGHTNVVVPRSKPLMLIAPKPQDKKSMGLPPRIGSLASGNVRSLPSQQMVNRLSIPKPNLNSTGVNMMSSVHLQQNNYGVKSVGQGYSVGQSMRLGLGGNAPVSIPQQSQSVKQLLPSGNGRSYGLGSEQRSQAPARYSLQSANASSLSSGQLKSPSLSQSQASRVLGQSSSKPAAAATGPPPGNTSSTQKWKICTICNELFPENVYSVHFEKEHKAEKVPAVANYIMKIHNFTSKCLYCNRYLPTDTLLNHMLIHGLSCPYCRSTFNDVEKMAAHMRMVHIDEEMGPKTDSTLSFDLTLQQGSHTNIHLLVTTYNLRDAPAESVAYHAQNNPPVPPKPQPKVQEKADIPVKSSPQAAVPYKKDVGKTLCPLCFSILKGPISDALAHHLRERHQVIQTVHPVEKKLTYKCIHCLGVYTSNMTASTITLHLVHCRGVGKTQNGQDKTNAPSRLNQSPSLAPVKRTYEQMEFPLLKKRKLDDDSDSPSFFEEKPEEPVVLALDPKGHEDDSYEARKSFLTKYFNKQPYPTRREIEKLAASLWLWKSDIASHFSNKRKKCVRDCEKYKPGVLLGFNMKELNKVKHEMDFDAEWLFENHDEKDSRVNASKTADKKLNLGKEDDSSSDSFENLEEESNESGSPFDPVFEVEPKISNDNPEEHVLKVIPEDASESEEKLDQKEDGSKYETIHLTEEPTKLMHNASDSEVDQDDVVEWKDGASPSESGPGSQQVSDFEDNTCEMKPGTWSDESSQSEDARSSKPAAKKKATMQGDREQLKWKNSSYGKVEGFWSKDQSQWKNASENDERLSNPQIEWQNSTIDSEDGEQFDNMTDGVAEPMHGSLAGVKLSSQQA
UniProt Q96SZ5, whole entry, looked up: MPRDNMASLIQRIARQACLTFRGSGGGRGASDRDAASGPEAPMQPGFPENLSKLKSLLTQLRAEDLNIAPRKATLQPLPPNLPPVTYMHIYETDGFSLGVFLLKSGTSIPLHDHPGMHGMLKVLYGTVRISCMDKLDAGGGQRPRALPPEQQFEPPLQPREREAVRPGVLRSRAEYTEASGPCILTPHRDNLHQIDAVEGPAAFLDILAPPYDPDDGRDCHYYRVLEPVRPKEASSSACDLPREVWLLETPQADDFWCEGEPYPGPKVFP
UniProt P24666: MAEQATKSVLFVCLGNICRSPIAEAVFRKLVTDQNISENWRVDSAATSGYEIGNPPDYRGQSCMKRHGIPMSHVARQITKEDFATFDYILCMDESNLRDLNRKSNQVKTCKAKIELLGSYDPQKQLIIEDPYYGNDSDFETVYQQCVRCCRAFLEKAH
UniProt P61163, whole entry, looked up: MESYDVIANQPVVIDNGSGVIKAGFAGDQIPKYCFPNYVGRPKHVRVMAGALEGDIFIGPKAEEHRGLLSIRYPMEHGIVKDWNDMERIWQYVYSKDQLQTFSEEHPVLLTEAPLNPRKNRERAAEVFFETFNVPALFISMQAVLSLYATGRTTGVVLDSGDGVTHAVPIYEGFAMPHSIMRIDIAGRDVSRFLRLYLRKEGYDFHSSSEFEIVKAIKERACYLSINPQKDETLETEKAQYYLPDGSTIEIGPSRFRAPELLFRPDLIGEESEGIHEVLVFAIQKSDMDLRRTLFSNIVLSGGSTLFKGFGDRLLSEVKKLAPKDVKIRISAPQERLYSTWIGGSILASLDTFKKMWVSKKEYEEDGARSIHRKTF
UniProt Q4G176: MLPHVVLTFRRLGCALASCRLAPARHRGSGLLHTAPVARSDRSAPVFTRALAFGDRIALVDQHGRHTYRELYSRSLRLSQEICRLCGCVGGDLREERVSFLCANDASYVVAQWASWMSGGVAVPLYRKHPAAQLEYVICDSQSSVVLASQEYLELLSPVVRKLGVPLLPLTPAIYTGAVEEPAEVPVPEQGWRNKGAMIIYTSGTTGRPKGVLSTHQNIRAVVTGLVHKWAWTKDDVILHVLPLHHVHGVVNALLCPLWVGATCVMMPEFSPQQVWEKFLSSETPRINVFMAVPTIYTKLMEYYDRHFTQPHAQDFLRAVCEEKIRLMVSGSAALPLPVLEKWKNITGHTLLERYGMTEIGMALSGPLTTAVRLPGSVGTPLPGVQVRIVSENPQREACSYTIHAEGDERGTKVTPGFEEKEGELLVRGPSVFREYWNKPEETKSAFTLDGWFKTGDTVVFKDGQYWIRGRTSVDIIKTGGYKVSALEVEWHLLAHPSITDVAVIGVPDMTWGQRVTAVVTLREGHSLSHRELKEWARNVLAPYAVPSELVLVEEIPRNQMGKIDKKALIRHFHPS
UniProt Q9UPW5: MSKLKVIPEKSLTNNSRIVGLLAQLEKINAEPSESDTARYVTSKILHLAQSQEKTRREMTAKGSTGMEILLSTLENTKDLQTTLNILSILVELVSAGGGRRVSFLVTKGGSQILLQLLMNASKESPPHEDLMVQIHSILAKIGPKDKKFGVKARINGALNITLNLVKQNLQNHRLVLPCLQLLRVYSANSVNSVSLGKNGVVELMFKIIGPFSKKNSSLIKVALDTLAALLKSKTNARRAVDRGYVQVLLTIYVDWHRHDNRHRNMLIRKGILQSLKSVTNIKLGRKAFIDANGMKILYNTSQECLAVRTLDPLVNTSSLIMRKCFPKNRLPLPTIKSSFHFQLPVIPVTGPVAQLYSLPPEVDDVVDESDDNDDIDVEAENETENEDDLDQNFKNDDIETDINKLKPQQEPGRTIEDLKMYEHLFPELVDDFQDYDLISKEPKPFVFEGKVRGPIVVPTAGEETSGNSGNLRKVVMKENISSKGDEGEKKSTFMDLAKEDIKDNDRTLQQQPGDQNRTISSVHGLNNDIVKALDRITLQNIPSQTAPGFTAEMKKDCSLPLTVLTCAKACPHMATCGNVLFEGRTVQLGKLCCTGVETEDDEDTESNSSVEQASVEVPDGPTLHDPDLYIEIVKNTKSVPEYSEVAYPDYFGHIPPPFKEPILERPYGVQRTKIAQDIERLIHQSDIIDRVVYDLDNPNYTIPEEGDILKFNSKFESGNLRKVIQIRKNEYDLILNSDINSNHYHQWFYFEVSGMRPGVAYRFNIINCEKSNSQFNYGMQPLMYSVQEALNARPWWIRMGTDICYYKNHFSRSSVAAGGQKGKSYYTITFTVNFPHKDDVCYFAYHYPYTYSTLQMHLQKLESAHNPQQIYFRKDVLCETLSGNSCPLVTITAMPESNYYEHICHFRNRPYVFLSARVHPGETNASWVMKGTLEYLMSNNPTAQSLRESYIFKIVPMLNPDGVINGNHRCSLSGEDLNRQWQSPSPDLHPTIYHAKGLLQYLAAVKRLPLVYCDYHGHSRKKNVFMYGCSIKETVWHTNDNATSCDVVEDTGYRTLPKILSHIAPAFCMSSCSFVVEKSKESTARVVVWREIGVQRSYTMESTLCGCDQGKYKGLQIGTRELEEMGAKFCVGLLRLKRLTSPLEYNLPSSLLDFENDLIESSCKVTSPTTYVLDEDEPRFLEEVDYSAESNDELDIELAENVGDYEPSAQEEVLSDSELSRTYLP
UniProt P51825: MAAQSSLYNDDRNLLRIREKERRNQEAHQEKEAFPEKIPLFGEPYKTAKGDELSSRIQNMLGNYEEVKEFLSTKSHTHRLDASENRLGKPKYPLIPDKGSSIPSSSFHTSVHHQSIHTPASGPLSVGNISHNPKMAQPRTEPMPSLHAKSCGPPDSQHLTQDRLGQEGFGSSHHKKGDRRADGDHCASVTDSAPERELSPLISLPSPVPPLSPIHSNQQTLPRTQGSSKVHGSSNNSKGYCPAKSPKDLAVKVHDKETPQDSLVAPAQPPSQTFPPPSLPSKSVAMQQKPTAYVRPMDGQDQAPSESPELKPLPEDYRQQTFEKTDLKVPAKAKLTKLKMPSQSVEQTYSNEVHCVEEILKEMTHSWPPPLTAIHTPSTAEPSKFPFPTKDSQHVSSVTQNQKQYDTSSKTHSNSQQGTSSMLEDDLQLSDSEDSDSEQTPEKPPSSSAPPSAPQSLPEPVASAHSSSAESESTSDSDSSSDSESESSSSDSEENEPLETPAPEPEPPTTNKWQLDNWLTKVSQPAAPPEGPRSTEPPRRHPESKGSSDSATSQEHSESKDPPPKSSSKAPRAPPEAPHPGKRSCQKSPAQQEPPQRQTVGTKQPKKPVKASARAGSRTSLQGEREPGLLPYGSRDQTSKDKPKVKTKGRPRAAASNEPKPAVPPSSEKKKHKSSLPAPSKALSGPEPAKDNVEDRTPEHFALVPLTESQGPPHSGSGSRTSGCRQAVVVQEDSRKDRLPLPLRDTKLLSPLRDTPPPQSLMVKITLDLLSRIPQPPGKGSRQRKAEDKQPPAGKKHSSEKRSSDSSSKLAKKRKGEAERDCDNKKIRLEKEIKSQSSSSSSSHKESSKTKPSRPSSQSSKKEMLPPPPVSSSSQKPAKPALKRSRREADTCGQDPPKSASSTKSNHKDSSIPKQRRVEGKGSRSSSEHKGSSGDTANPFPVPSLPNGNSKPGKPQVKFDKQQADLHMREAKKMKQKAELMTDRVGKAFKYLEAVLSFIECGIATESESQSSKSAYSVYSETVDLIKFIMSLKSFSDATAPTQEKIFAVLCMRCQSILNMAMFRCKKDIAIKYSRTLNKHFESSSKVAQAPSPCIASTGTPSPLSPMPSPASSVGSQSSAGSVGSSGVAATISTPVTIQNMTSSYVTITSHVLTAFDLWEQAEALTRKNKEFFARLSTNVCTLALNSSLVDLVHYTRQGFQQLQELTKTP

compound: C#Cc1cccc(Nc2ncnc3cc(OCCOC)c(OCCOC)cc23)c1 [erlotinib]; assay: log2 fold change, soluble protein after heating vs DMSO (PISA); higher = thermal stabilisation; K562 lysate, 10 uM; active = over 0.2 and 3.5 SD of the protein, either way, in both replicates (recomputed)
Method in brief: (§1)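 Pellets of K562 cells were dounce-homogenised in PBS pH 7.4 with 1 mM MgCl2, and the crude extract was held at 1 mg/mL protein for a 30 min treatment with 10 μM compound. Aliquots were heated for 3 min over 48°C-58°C and pooled before NP-40 was added to 0.5% at 4°C. The supernatant from 21,000xg for 90 min was quantified by TMTpro 16plex LC-MS/MS with channel sums equalised. Values are reported from duplicates as log-two fold change in thermal stability relative to solvent controls.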

log2 fold change, inactive:
AIP (UniProt O00170) -0.006
ACY1 (UniProt Q03154) -0.032
ACTG1 (UniProt I3L4N8) 0.118
ACYP1 (UniProt P07311) -0.032
ADIPOR2 (UniProt Q86V24) 0.032
ACSL1 (UniProt P33121) 0.02
ACOT9 isoform 4 (UniProt Q9Y305) -0.012
AGFG1 isoform 4 (UniProt P52594) -0.019
ADA (UniProt P00813) -0.009
ADAM10 (UniProt O14672) -0.041
AFF4 (UniProt Q9UHB7) -0.003
AKNA (UniProt Q7Z591) 0.2
ACSM3 (UniProt Q53FZ2) -0.015
ADH5 (UniProt P11766) -0.006
ADNP (UniProt Q9H2P0) -0.004
AKR1C3 (UniProt P42330) 0.002
ADD1 isoform 3 (UniProt P35611) -0.027
ADO (UniProt Q96SZ5) 0.013
ACSL4 (UniProt O60488) 0.004
AKR1A1 (UniProt P14550) 0.007
ACP1 isoform 2 (UniProt P24666) 0.038
ACTR1A (UniProt P61163) -0.027
AKAP12 (UniProt Q02952) 0.095
AK4 (UniProt P27144) -0.024
AGPS (UniProt O00116) 0.033
ACTB, A0A2R8Y793 0.034
ACTR2 (UniProt P61160) 0.011
ACSF3 (UniProt Q4G176) 0.023
AGTPBP1 (UniProt Q9UPW5) -0.033
AHSA1 (UniProt O95433) -0.005
ADPRH (UniProt P54922) 0.075
AFF1 isoform 2 (UniProt P51825) -0.001
AGAP3 isoform 4 (UniProt Q96P47) 0.02
AIFM1 (UniProt O95831) -0.007

compound: C/C(=N\NC(=O)C1=CC(=CC=C1)S(=O)(=O)N2CCOCC2)/C3=C(C=CC(=C3)Cl)O; assay: as above
Method in brief: as §1

log2 fold change, inactive:
AIP (UniProt O00170) -0.032
ACY1 (UniProt Q03154) 0.01
ACTG1 (UniProt I3L4N8) 0.163
ACYP1 (UniProt P07311) 0.028
ADIPOR2 (UniProt Q86V24) -0.115
ACSL1 (UniProt P33121) -0.104
ACOT9 isoform 4 (UniProt Q9Y305) -0.037
AGFG1 isoform 4 (UniProt P52594) -0.034
ADA (UniProt P00813) -0.005
ADAM10 (UniProt O14672) -0.139
AFF4 (UniProt Q9UHB7) -0.152
AKNA (UniProt Q7Z591) 0.124
ACSM3 (UniProt Q53FZ2) 0.124
ADH5 (UniProt P11766) 0.033
ADNP (UniProt Q9H2P0) 0.025
AKR1C3 (UniProt P42330) 0.023
ADD1 isoform 3 (UniProt P35611) 0
ADO (UniProt Q96SZ5) -0.004
ACSL4 (UniProt O60488) -0.074
AKR1A1 (UniProt P14550) 0.02
ACP1 isoform 2 (UniProt P24666) -0.008
ACTR1A (UniProt P61163) 0.041
AKAP12 (UniProt Q02952) -0.155
AK4 (UniProt P27144) 0.024
AGPS (UniProt O00116) -0.086
ACTB, A0A2R8Y793 0.019
ACTR2 (UniProt P61160) 0.015
ACSF3 (UniProt Q4G176) 0.076
AGTPBP1 (UniProt Q9UPW5) -0.084
AHSA1 (UniProt O95433) -0.021
ADPRH (UniProt P54922) 0.175
AFF1 isoform 2 (UniProt P51825) -0.085
AGAP3 isoform 4 (UniProt Q96P47) -0.038
AIFM1 (UniProt O95831) 0.019

compound: C1=CC(=CC=C1C2=NC3=C(N2)C=C(C=C3)C(=O)N)OC4=CC=C(C=C4)Cl; assay: as above
Method in brief: as §1

log2 fold change, inactive:
AIP (UniProt O00170) -0.015
ACY1 (UniProt Q03154) -0.01
ACTG1 (UniProt I3L4N8) -0.016
ACYP1 (UniProt P07311) -0.007
ADIPOR2 (UniProt Q86V24) 0.037
ACSL1 (UniProt P33121) -0.153
ACOT9 isoform 4 (UniProt Q9Y305) 0.019
AGFG1 isoform 4 (UniProt P52594) 0.028
ADA (UniProt P00813) -0.007
ADAM10 (UniProt O14672) -0.003
AFF4 (UniProt Q9UHB7) 0.007
AKNA (UniProt Q7Z591) -0.119
ACSM3 (UniProt Q53FZ2) 0.013
ADH5 (UniProt P11766) -0.007
ADNP (UniProt Q9H2P0) 0.012
AKR1C3 (UniProt P42330) -0.1
ADD1 isoform 3 (UniProt P35611) 0.033
ADO (UniProt Q96SZ5) 0
ACSL4 (UniProt O60488) -0.053
AKR1A1 (UniProt P14550) -0.004
ACP1 isoform 2 (UniProt P24666) -0.004
ACTR1A (UniProt P61163) 0.031
AKAP12 (UniProt Q02952) -0.101
AK4 (UniProt P27144) -0.024
AGPS (UniProt O00116) -0.014
ACTB, A0A2R8Y793 0.017
ACTR2 (UniProt P61160) 0.023
ACSF3 (UniProt Q4G176) 0.07
AGTPBP1 (UniProt Q9UPW5) 0.027
AHSA1 (UniProt O95433) 0.005
ADPRH (UniProt P54922) 0.005
AFF1 isoform 2 (UniProt P51825) 0.027
AGAP3 isoform 4 (UniProt Q96P47) 0.036
AIFM1 (UniProt O95831) -0.018
